# Experimental data as given in PubChem BioAssay AID445 (National Center for Advancing Translational Sciences (NCATS), 2006).
# Several values for one entry are separate records, joined by “and”; a condition that tells them apart may be missing. Identical values can stand only once. Some of the results follow. Shown are side measurements of this screen, not its main read-out; they come without a call. Most of these compounds were active or inconclusive in the main read-out, so they are no random draw. Words in brackets tell the shape of the fitted curve; partial curves, single points and poor fits give uncertain potencies.
# Test: IkB Signaling
# Conditions: ABC-DLBCL IkBa-CBG/CBR dual luciferase ratio (green luciferase fused to IkBa over red control in OCI-Ly3 lymphoma cells), 4 h
# Summary of the method: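 Curves were fitted separately to fusion (green), unfused (red) and ratio luminescence, then classed by r2, magnitude and activity. Cells: OCI-Ly3, 4 h compound plus doxycycline at 37C; 10 uM MG-132 defined full response.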
# [1] = measured here: control luc red channel unless noted
# [2] = measured here: IkB-luc green channel
# [3] = measured here: control luc red channel
compound,measurement,setting,value
O=C(Nc1ccc(F)cc1)c1cc(S(=O)(=O)N2CCCCC2)cs1,AC50,[1],"10 µM [falling, partial curve]"
COc1ccccc1CNS(=O)(=O)c1cc(Br)cc2c1N(C(=O)C1CC1)CC2,AC50,[1],"12.6 µM [falling, partial curve]"
Cc1cc(C)c2sc(NC(=O)c3ccc(S(=O)(=O)N4CCCC4)cc3)nc2c1,AC50,[1],"5.01 µM [falling, partial curve]"
CC(C)(C)c1ccc(-c2nc(C#N)c(NCc3ccncc3)o2)cc1,AC50,[1],"39.8 µM [falling, single point]"
COc1ccccc1C(=O)Nc1nc2nc(C)cc(=O)n2[nH]1,AC50,[1],"3.98 µM [falling, partial curve]"
O=C1C(SCCO)=C(SCCO)C(=O)c2ccccc21,AC50,[2],"5.01 µM [rising, partial curve]"
same,AC50,[3],"3.98 µM [falling, partial curve] and 2 µM [falling, full curve]"
COc1ccc(OC)c(S(=O)(=O)Nc2ccc3c(c2)n(C)c(=O)n3C)c1,AC50,[2],"10 µM [rising, partial curve]"
same,AC50,[3],"20 µM [rising, partial curve]"
CCOC(=O)c1c(C)oc2ccc(N(C(=O)c3ccncc3)S(=O)(=O)c3ccc(CC)cc3)cc12,AC50,[2],"7.94 µM [rising, single point]"
same,AC50,[3],"15.8 µM [falling, partial curve]"
C=CCc1ccccc1OCC(O)CN1CCN(Cc2ccc3c(c2)OCO3)CC1 (centres undefined),AC50,[1],"15.8 µM [falling, partial curve]"
CCOC(=O)c1c(C)[nH]c(CCC(=O)Nc2cc(Cl)ccc2OC)c1C,AC50,[1],"25.1 µM [falling, partial curve]"
COC(=O)c1cc(NC(=O)c2cc3c(-c4ccccc4F)nn(C)c3s2)cc(C(=O)OC)c1,AC50,[1],"15.8 µM [falling, partial curve]"
O=C(c1cccs1)N1CCC(c2nc3ccccc3s2)CC1,AC50,[1],"31.6 µM [falling, single point]"
COc1ccc(N2CCN(S(=O)(=O)c3ccc(CC(C)C)cc3)CC2)cc1,AC50,[1],"15.8 µM [falling, partial curve]"
CCOC(=O)c1c(NC(=O)CSc2nnc(-c3ccccc3)n2CC)sc(C(C)=O)c1C,AC50,[1],"15.8 µM [falling, partial curve]"
O=C(CSc1ncnc2ccccc12)N1CCN(c2ccccc2)CC1,AC50,[1],"15.8 µM [falling, partial curve]"
CCOC(=O)c1cccc(NC(=O)C(C)n2nc(C)c3c(C)n(-c4ccccc4)nc3c2=O)c1 (centres undefined),AC50,[1],"20 µM [falling, single point]"
